# Some of the results follow.
# B1: BT4246 (Bacteroides thetaiotaomicron), Q89ZX5 (protein)
# chain: MGSSHHHHHHENLYFQGHMASDYLDVVPPEQPNIDDAMSSPTRALGFLYSCYGGVSTDLPSAYLGEINSTTDEYVLPYSWNTDGYWGAYAFNTASSTNQDWLWGTTYQYIGQCYLFLQKLENAGSDIASDAEKEQWRAECQFLVAYYHFATLRRYGPIPITDSYIPMDTPTSEYNGRFHFDYCVDWIANQLDEAAKVLPANRTVTNEWGRATSTIAKAVKARLLLYAASPLWNGSFPYPNWQNENFETPGYGKALVSNTYDKSKWERALAACQEALTLATTSGDRELYDDDEYYSRQSLNLPFVPGVADVEDNKEFLKNVMKMRYAVSTRESEGNKEIIWGLSNQFDFYSRYPLRILKKSDGTWHAGYSGVSPTLYTFEHFYTANGKLPEKDLDFTPSSEWFESAGISSREDIIKLNVGREPRFYAWMAFDGGDYGTKFAAGSPLKLEMRNSEMHGYNPSLFNRDHSVTGFLTQKFVDPVTEFYTAGGSTSGTSAPTILFRLAELYLNVAECHAALGNTQEAIDALNPVRERAGIPKLTLADITNNMTIKDWVHNERFVELWNEGHRFFDVRRWAEGAKYFGANKREGLNAEVQSPTFEEFNKRTTVDAPYVWENRMYLNPVFYNEVYKNPQMVQAPGY
# Legend:
# Experiment in all cases: glycan array binding signal (z-score within array); higher = stronger binding
# Conditions in all cases: glycan notation: IUPAC condensed, linker removed
# [1] = molecular target: Gal(b1-4)GalNAc(b1-3)[Fuc(a1-2)]Gal(b1-4)GlcNAc
# Outline: (§1)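 The Consortium for Functional Glycomics database supplied 3228 glycan arrays, of which those lacking an available protein sequence were dropped. The binding signal, a within-array Z-score, was averaged across arrays of the same protein sequence and across linkers. Negative scores can be read as non-binding.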
# Gal(b1-4)Glc = molecular target: Gal(b1-4)Glc
# Outline: as §1
# Gal(b1-4)Glc6S = molecular target: Gal(b1-4)Glc6S
# Outline: as §1
# Gal(b1-4)GlcNAc = molecular target: Gal(b1-4)GlcNAc
# Outline: as §1
# [2] = molecular target: Gal(b1-4)GlcNAc(a1-6)Gal(b1-4)GlcNAc
# Outline: as §1
# Gal(b1-4)GlcNAc(b1-2)Man = molecular target: Gal(b1-4)GlcNAc(b1-2)Man
# Outline: as §1
# [3] = molecular target: Gal(b1-4)GlcNAc(b1-2)Man(a1-3)Man(b1-4)GlcNAc(b1-4)GlcNAc
# Outline: as §1
# [4] = molecular target: Gal(b1-4)GlcNAc(b1-2)Man(a1-3)[Gal(b1-4)GlcNAc(b1-2)Man(a1-6)]Man(b1-4)GlcNAc(b1-4)GlcNAc
# Outline: as §1
# [5] = molecular target: Gal(b1-4)GlcNAc(b1-2)Man(a1-3)[Gal(b1-4)GlcNAc(b1-2)Man(a1-6)]Man(b1-4)GlcNAc(b1-4)[Fuc(a1-6)]GlcNAc
# Outline: as §1
# [6] = molecular target: Gal(b1-4)GlcNAc(b1-2)Man(a1-3)[Gal(b1-4)GlcNAc(b1-2)Man(a1-6)][Gal(b1-4)GlcNAc(b1-4)]Man(b1-4)GlcNAc(b1-4)[Fuc(a1-6)]GlcNAc
# Outline: as §1
# [7] = molecular target: Gal(b1-4)GlcNAc(b1-2)Man(a1-3)[Gal(b1-4)GlcNAc(b1-2)Man(a1-6)][GlcNAc(b1-4)]Man(b1-4)GlcNAc(b1-4)[Fuc(a1-6)]GlcNAc
# Outline: as §1
# [8] = molecular target: Gal(b1-4)GlcNAc(b1-2)Man(a1-3)[GlcNAc(b1-2)Man(a1-6)]Man(b1-4)GlcNAc(b1-4)GlcNAc
# Outline: as §1
# [9] = molecular target: Gal(b1-4)GlcNAc(b1-2)Man(a1-3)[GlcNAc(b1-4)][Gal(b1-4)GlcNAc(b1-2)Man(a1-6)]Man(b1-4)GlcNAc(b1-4)GlcNAc
# Outline: as §1
# [10] = molecular target: Gal(b1-4)GlcNAc(b1-2)Man(a1-3)[Man(a1-6)]Man(b1-4)GlcNAc(b1-4)GlcNAc
# Outline: as §1
# [11] = molecular target: Gal(b1-4)GlcNAc(b1-2)Man(a1-6)Man(b1-4)GlcNAc(b1-4)GlcNAc
# Outline: as §1
# [12] = molecular target: Gal(b1-4)GlcNAc(b1-2)Man(a1-6)[GlcNAc(b1-2)Man(a1-3)]Man(b1-4)GlcNAc(b1-4)GlcNAc
# Outline: as §1
# [13] = molecular target: Gal(b1-4)GlcNAc(b1-2)Man(a1-6)[Man(a1-3)]Man(b1-4)GlcNAc(b1-4)GlcNAc
# Outline: as §1
# [14] = molecular target: Gal(b1-4)GlcNAc(b1-2)[Gal(b1-4)GlcNAc(b1-4)]Man(a1-3)[Gal(b1-4)GlcNAc(b1-2)Man(a1-6)]Man(b1-4)GlcNAc(b1-4)GlcNAc
# Outline: as §1
# [15] = molecular target: Gal(b1-4)GlcNAc(b1-2)[Gal(b1-4)GlcNAc(b1-4)]Man(a1-3)[Gal(b1-4)GlcNAc(b1-2)[Gal(b1-4)GlcNAc(b1-6)]Man(a1-6)]Man(b1-4)GlcNAc(b1-4)GlcNAc
# Outline: as §1
# [16] = molecular target: Gal(b1-4)GlcNAc(b1-2)[Gal(b1-4)GlcNAc(b1-4)]Man(a1-3)[GlcNAc(b1-4)][Gal(b1-4)GlcNAc(b1-2)Man(a1-6)]Man(b1-4)GlcNAc(b1-4)GlcNAc
# Outline: as §1
# [17] = molecular target: Gal(b1-4)GlcNAc(b1-2)[Gal(b1-4)GlcNAc(b1-4)]Man(a1-3)[GlcNAc(b1-4)][Gal(b1-4)GlcNAc(b1-2)[Gal(b1-4)GlcNAc(b1-6)]Man(a1-6)]Man(b1-4)GlcNAc(b1-4)GlcNAc
# Outline: as §1
# [18] = molecular target: Gal(b1-4)GlcNAc(b1-2)[Gal(b1-4)GlcNAc(b1-6)]Man(a1-6)[Gal(b1-4)GlcNAc(b1-2)Man(a1-3)]Man(b1-4)GlcNAc(b1-4)GlcNAc
# Outline: as §1
# [19] = molecular target: Gal(b1-4)GlcNAc(b1-2)[Gal(b1-4)GlcNAc(b1-6)]Man(a1-6)[Gal(b1-4)GlcNAc(b1-2)Man(a1-3)]Man(b1-4)GlcNAc(b1-4)[Fuc(a1-6)]GlcNAc
# Outline: as §1
# [20] = molecular target: Gal(b1-4)GlcNAc(b1-2)[Gal(b1-4)GlcNAc(b1-6)]Man(a1-6)[GlcNAc(b1-4)][Gal(b1-4)GlcNAc(b1-2)Man(a1-3)]Man(b1-4)GlcNAc(b1-4)GlcNAc
# Outline: as §1
# [21] = molecular target: Gal(b1-4)GlcNAc(b1-2)[Gal(b1-4)GlcNAc(b1-6)]Man(a1-6)[GlcNAc(b1-4)][Gal(b1-4)GlcNAc(b1-2)[Gal(b1-4)GlcNAc(b1-4)]Man(a1-3)]Man(b1-4)GlcNAc(b1-4)[Fuc(a1-6)]GlcNAc
# Outline: as §1
# [22] = molecular target: Gal(b1-4)GlcNAc(b1-3)Gal(b1-3)GalNAc
# Outline: as §1
# [23] = molecular target: Gal(b1-4)GlcNAc(b1-3)Gal(b1-3)GlcNAc
# Outline: as §1
# [24] = molecular target: Gal(b1-4)GlcNAc(b1-3)Gal(b1-4)Glc
# Outline: as §1
# [25] = molecular target: Gal(b1-4)GlcNAc(b1-3)Gal(b1-4)GlcNAc
# Outline: as §1
# [26] = molecular target: Gal(b1-4)GlcNAc(b1-3)Gal(b1-4)GlcNAc(b1-2)Man(a1-3)[Gal(b1-4)GlcNAc(b1-3)Gal(b1-4)GlcNAc(b1-2)Man(a1-6)]Man(b1-4)GlcNAc(b1-4)GlcNAc
# Outline: as §1
binder,measurement,setting,value
B1,glycan array binding signal (z-score),[1],-0.68
same,glycan array binding signal (z-score),Gal(b1-4)Glc,0.047
same,glycan array binding signal (z-score),Gal(b1-4)Glc6S,0.15
same,glycan array binding signal (z-score),Gal(b1-4)GlcNAc,-1.31
same,glycan array binding signal (z-score),[2],-0.67
same,glycan array binding signal (z-score),Gal(b1-4)GlcNAc(b1-2)Man,0.532
same,glycan array binding signal (z-score),[3],-1.13
same,glycan array binding signal (z-score),[4],-0.968
same,glycan array binding signal (z-score),[5],-0.554
same,glycan array binding signal (z-score),[6],-0.434
same,glycan array binding signal (z-score),[7],-0.489
same,glycan array binding signal (z-score),[8],-1.08
same,glycan array binding signal (z-score),[9],0.387
same,glycan array binding signal (z-score),[10],2.35
same,glycan array binding signal (z-score),[11],-0.53
same,glycan array binding signal (z-score),[12],0.135
same,glycan array binding signal (z-score),[13],0.036
same,glycan array binding signal (z-score),[14],-0.145
same,glycan array binding signal (z-score),[15],-0.529
same,glycan array binding signal (z-score),[16],0.217
same,glycan array binding signal (z-score),[17],0.603
same,glycan array binding signal (z-score),[18],-1.01
same,glycan array binding signal (z-score),[19],-0.607
same,glycan array binding signal (z-score),[20],-0.45
same,glycan array binding signal (z-score),[21],-0.593
same,glycan array binding signal (z-score),[22],-0.874
same,glycan array binding signal (z-score),[23],-1.17
same,glycan array binding signal (z-score),[24],-0.144
same,glycan array binding signal (z-score),[25],1.75
same,glycan array binding signal (z-score),[26],0.897

# Given bar-delimited: entries from further up.
binder | measurement | setting | value
B1 | glycan array binding signal (z-score) | [12] | 0.135
same | glycan array binding signal (z-score) | [26] | 0.897
